Source: patent US20240034757A1
Results are given in words; binding and its absence hold for the method and conditions named.

The chains behind the UniProt entries cited, without tags or fusion partners. Residues count along the entry.
UniProt P22362, residues 24-96: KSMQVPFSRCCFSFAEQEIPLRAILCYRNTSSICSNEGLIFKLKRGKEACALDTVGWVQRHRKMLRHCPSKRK
UniProt P13501, residues 24-91: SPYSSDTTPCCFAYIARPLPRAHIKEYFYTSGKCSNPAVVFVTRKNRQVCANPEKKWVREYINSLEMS
UniProt Q16663, residues 22-113: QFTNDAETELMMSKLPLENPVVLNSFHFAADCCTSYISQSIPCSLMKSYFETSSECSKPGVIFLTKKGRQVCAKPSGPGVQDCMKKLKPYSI
UniProt O15467, residues 24-120: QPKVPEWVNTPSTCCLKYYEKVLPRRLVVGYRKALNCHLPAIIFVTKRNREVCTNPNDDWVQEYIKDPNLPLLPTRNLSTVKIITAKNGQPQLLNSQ
UniProt Q92583, residues 24-94: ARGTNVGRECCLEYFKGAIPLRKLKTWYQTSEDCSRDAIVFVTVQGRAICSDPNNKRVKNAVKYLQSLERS
UniProt Q99731, residues 22-98: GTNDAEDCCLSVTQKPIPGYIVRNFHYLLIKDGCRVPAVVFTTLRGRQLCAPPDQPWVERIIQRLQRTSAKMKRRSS
UniProt P78556, residues 27-96: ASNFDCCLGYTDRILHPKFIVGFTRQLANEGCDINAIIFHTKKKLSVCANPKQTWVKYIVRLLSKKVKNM
UniProt O00585, residues 24-134: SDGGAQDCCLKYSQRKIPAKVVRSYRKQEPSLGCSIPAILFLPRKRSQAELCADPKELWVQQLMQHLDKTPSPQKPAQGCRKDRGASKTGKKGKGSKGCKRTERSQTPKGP
UniProt O00626, residues 25-93: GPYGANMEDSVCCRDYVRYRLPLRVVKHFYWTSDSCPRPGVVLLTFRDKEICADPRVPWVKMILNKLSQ
UniProt P55773, residues 22-120: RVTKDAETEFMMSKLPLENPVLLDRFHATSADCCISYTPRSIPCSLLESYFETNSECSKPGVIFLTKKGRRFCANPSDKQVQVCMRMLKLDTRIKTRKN
UniProt O00175, residues 27-104: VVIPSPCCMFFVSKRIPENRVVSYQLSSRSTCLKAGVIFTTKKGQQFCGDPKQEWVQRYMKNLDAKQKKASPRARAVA
UniProt Q9Y4X3, residues 25-112: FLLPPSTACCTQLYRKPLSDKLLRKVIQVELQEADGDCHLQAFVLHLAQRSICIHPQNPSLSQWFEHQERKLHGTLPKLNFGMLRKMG
UniProt Q9NRJ3, residues 23-127: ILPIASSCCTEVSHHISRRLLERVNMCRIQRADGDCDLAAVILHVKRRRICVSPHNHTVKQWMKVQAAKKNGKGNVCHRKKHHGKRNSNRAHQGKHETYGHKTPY
UniProt P78423, residues 25-100: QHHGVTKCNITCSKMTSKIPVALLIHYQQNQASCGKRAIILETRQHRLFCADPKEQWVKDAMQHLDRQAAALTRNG
UniProt P09341, residues 35-107: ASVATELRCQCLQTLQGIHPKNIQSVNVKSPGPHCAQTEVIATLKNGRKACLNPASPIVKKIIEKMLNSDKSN
UniProt P19875, residues 35-107: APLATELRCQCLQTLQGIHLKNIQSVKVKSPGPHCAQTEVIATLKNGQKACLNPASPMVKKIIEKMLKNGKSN
UniProt P19876, residues 35-107: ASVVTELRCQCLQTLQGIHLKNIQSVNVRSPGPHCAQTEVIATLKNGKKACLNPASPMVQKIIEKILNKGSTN
UniProt P02776, residues 32-101: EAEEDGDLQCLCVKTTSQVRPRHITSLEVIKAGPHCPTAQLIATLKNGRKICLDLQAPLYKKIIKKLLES
UniProt P42830, residues 41-114: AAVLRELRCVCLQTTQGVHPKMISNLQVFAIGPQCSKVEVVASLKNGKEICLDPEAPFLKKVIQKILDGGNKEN
UniProt P80162, residues 38-114: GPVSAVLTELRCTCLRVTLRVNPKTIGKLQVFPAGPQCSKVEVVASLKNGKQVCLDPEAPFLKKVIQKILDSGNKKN
UniProt P02775, residues 59-128: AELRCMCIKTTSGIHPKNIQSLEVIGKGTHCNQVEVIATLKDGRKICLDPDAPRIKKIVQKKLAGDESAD
UniProt P10145, residues 28-99: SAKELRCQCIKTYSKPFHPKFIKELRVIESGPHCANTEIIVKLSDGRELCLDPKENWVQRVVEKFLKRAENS
UniProt Q07325, residues 23-125: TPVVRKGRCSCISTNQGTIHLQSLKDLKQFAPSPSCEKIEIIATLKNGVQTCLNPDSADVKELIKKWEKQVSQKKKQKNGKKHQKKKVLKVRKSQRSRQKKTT
UniProt P02778, residues 22-98: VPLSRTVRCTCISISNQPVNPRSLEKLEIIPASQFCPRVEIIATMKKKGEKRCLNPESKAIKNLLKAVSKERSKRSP
UniProt O14625, residues 22-94: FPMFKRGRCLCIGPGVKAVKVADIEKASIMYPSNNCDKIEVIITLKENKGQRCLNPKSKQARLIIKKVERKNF
UniProt P48061, residues 22-89: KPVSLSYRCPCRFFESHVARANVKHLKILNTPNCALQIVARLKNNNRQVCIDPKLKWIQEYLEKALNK
UniProt O43927, residues 23-109: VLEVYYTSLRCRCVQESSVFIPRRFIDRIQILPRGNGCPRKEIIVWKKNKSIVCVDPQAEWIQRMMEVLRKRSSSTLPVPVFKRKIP
UniProt O95715, residues 35-111: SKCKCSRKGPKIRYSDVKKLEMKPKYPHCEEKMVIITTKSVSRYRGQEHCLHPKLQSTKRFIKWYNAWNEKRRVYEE

What was measured:
[1] = molecular target: CCL1_HUMAN (human) (UniProt P22362); test: BLI, empty cell the 12th table, row 10, column 11
[2] = molecular target: CCL5_HUMAN (human) (UniProt P13501); test: BLI, empty cell the 12th table, row 18, column 11
[3] = molecular target: CCL15_HUMAN (human) (UniProt Q16663); test: BLI, empty cell the 12th table, row 25, column 11
[4] = molecular target: CCL16_HUMAN (human) (UniProt O15467); test: BLI, empty cell the 12th table, row 26, column 11
[5] = molecular target: CCL17_HUMAN (human) (UniProt Q92583); test: BLI, empty cell the 12th table, row 27, column 11
[6] = molecular target: CCL19_HUMAN (human) (UniProt Q99731); test: BLI, empty cell the 12th table, row 29, column 11
[7] = molecular target: CCL20_HUMAN (human) (UniProt P78556); test: BLI, empty cell the 12th table, row 30, column 11
[8] = molecular target: CCL21_HUMAN (human) (UniProt O00585); test: BLI, empty cell the 12th table, row 32, column 11
[9] = molecular target: CCL22_HUMAN (human) (UniProt O00626); test: BLI, empty cell the 12th table, row 33, column 11
[10] = molecular target: CCL23_HUMAN (human) (UniProt P55773); test: BLI, empty cell the 12th table, row 34, column 11
[11] = molecular target: CCL24_HUMAN (human) (UniProt O00175); test: BLI, empty cell the 12th table, row 35, column 11
[12] = molecular target: CCL27_HUMAN (human) (UniProt Q9Y4X3); test: BLI, empty cell the 12th table, row 38, column 11
[13] = molecular target: CCL28_HUMAN (human) (UniProt Q9NRJ3); test: BLI, empty cell the 12th table, row 40, column 11
[14] = molecular target: CX3CL1_HUMAN (human) (UniProt P78423); test: BLI, empty cell the 12th table, row 41, column 11
[15] = molecular target: CXCL1_HUMAN (human) (UniProt P09341); test: BLI, empty cell the 12th table, row 42, column 11
[16] = molecular target: CXCL2_HUMAN (human) (UniProt P19875); test: BLI, empty cell the 12th table, row 43, column 11
[17] = molecular target: CXCL3_HUMAN (human) (UniProt P19876); test: BLI, empty cell the 12th table, row 44, column 11
[18] = molecular target: CXCL4_HUMAN (human) (UniProt P02776); test: BLI, empty cell the 12th table, row 45, column 11
[19] = molecular target: CXCL5_HUMAN (human) (UniProt P42830); test: BLI, empty cell the 12th table, row 46, column 11
[20] = molecular target: CXCL6_HUMAN (human) (UniProt P80162); test: BLI, empty cell the 12th table, row 47, column 11
[21] = molecular target: CXCL7_HUMAN (human) (UniProt P02775); test: BLI, empty cell the 12th table, row 48, column 11
[22] = molecular target: CXCL8_HUMAN (human) (UniProt P10145); test: BLI, empty cell the 12th table, row 49, column 11
[23] = molecular target: CXCL9_HUMAN (human) (UniProt Q07325); test: BLI, empty cell the 12th table, row 50, column 11
[24] = molecular target: CXCL10_HUMAN (human) (UniProt P02778); test: BLI, empty cell the 12th table, row 51, column 11
[25] = molecular target: CXCL11_HUMAN (human) (UniProt O14625); test: BLI, empty cell the 12th table, row 52, column 11
[26] = molecular target: CXCL12_HUMAN (human) (UniProt P48061); test: BLI, empty cell the 12th table, row 53, column 11
[27] = molecular target: CXCL13_HUMAN (human) (UniProt O43927); test: BLI, empty cell the 12th table, row 54, column 11
[28] = molecular target: CXCL14_HUMAN (human) (UniProt O95715); test: BLI, empty cell the 12th table, row 55, column 11
[29] = molecular target: T1, XCL1_HUMAN (human) (UniProt P47992); test: BLI, empty cell the 12th table, row 59, column 11
T1 sequence: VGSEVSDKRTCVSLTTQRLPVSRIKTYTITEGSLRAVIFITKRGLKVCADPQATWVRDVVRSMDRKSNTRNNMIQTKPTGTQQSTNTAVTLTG

Measured: binding

B1: P1181_AMBMA (protein)
chain: EEREDDNDYGGGCPFVVLGNGTHAKPAGCSHLCNGAPETLDNIECYNVTEEVAKRMTPDIPYTCWLGWCSKGECKRDNRTEVCYRGSERE
no binding (tested: 300 nM): [1] | [2] | [3] | [4] | [5] | [6] | [7] | [8] | [9] | [10] | [11] | [12] | [13] | [14] | [15] | [16] | [17] | [18] | [19] | [20] | [21] | [22] | [23] | [24] | [25] | [26] | [27] | [28] | [29]
